Results deposited as PubChem BioAssay AID602196 (INSERM, 2012).
Screen: 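Modifiers of cisplatin sensitivity in A549 cells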. Cells: human A549 lung cancer cells. Reagents: siRNA pair against human genes. Timing: 48 h transfection before cisplatin; time from cisplatin to read-out not stated. Treatment: cisplatin at a dose killing half of control-siRNA cells; exact dose and duration not given. Detection: 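Cisplatin cell death as a shift from the 50% death seen with control siRNA; siRNAs toxic or growth-blocking alone scored 0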. Direction: two-siRNA summed score (-2 to +2): higher = both siRNAs protect from cisplatin killing; -2 means both sensitise; mean protection from cisplatin (shift in death) and protection from cisplatin (shift in death), siRNA C and protection from cisplatin (shift in death), siRNA D: higher = protection from cisplatin killing. Call rule: 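Each siRNA scores 0 if harmful alone by LDH or WST-1, otherwise +1 if it reduces and -1 if it increases cisplatin killing; a gene is active when both siRNAs agree (sum +2 or -2)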. Calls: active = both siRNAs shift cisplatin killing the same way; inactive = no consistent shift, or siRNA harmful alone.
Here is a random part of about 23,000 reagents. 455 of them (2%) count as active. 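Active includes both protection and sensitisation; some change values fall well beyond the stated -50 to +50 range.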 A number with no mark means an inactive call. Reagent sequences are not shown. The record does not give: the amount of reagent.

Gene	two-siRNA summed score (-2 to +2)	mean protection from cisplatin (shift in death) (%)	protection from cisplatin (shift in death), siRNA C (%)	protection from cisplatin (shift in death), siRNA D (%)
CXCL2	0	6.1	11.6	0.6
H2BC17	-1	-12.2	-22	-2.4
ST8SIA1	0	0.2	4.5	-4.1
LOC390636	1	18.3	20.5	16.2
ARHGAP20	0	-9	-19.1	1
SSUH2	0	-6.7	-8.4	-4.9
C8B	1	5.5	11.6	-0.6
ISOC1	0	3.6	0.8	6.5
P2RY1	-1	-11.2	-7	-15.4
GLB1	-1	-15.3	-34	3.4
C12orf75	1	2.2	-4.6	9.1
B3GALT6	0	-2.9	-0.6	-5.3
CTAGE4	0	-2	-1.8	-2.3
ODR4	0	1	-8.2	10.2
LOC388283	0	9.5	12.2	6.7
SFR1	0	9.7	10.4	9
TAFA5	0	25.7	13	38.3
LOC399921	0	4.5	10.8	-1.8
MALSU1	0	6.5	2.4	10.6
LOC388122	2 (active)	21	22.1	19.8
DNM3	0	12.5	11.1	13.9
LINC01118	-1	-8.8	-2	-15.6
MAIP1	0	-3.1	-1	-5.2
OSBPL1A	1	7.4	12.6	2.3
TAL1	1	10.1	4.5	15.8
SLC44A3	0	-0.8	-1.2	-0.4
QRICH1	0	-12.7	-16.1	-9.3
CPAP	0	-0.9	-8.9	7.1
LOC148003	0	3.5	20.2	-13.2
KLHL5	0	2.7	4.9	0.4
MGC46336	1	11.3	17	5.6
IRX2	0	15.9	8.7	23
ESRRB	0	4.6	3.6	5.6
CORO1A	0	-4.8	0.6	-10.2
NLRX1	0	4.4	7.7	1.1
QTRT2	0	-0.2	-6.2	5.9
GRM1	-2 (active)	-13.9	-10.4	-17.4
PCP4	1	14.1	12.8	15.5
LOC389055	0	-1.3	5.6	-8.2
LOC441726	0	-0.7	-0.3	-1.2
PRL	0	-10.5	-21.7	0.7
FERD3L	0	20.1	21.1	19.1
LRRK1	0	4.2	14.9	-6.5
WDR76	0	9	1.7	16.4
HPS3	-1	-5.5	9.2	-20.2
PPWD1	0	8.4	15.3	1.4
STK11IP	-1	-10.4	-11.9	-8.9
LOC339583	0	-3.6	4.6	-11.8
GCKR	0	7.3	15.7	-1.1
KLHL26	1	9.5	-0.5	19.5
CCL23	0	1.7	5.4	-1.9
KARS1	0	3.4	-8.7	15.6
HSPA8P11	0	8	9.8	6.3
LDAH	0	3.3	0.4	6.1
ZSCAN10	0	-3.9	1.3	-9.1
KIAA0493	-1	-2.5	-24.1	19.1
BRI3BP	0	2.2	1.3	3
